Laboratory results from PMC4111544.
No constants are given. Whether binding was seen depends on the method and setting. In cells and extracts the contact can be indirect. A yes stands for co-enrichment or nearness to the bait. Other partners may have been found. Where a sequence is shown, tags or fusion partners need not be part of it.

T1: small exported membrane protein 1 (SEMP1) with a C-terminal 3xHA tag (Plasmodium falciparum) (UniProt Q8IC43)
T1 sequence: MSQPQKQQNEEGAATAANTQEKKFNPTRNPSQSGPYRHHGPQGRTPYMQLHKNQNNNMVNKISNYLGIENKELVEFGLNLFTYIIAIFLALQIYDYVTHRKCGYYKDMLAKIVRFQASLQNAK

B1: REX1 (protein, UniProt Q8I2G1 1-713)
chain: MADYSSNEEETPKEEKKISKLEDMQSPFDYKRFFRKYTIFAPFILVYFTLMFFVNSTVQNGTMLLNSIKENANSKLPALLWNKIIGKGNDNEVNFEDKKMIEGNKSGNGEEHNKHKRRQVDNQEDDYDVDEYGNPKSGAPYKSEEEHAEQQNYYGEHHGDYEDKNEYHGKSNIENNKDFPEQGQKDEEKEKEAKKKAEEFEKRKQLHEEEKRKARETQQALHKKLQEQLQRLKEQEKKKVEHQKLIHKIKTQGDVDPAVQKVLNKYNQKEKDEEQQILKIRDLQVQLRHIQQRIQSLKSTNNGQPKTKDEYLQLKDLQKEYYDKEQDEQNMIEHLEHLQGEMQYLYEELQIVYDENQAKTAQAKDEQHELKPQAEKDASKLTTTYDQTKEVKPQAEKDASKLTTTYDQTKEVKPQAEKDASKLTTTYDQTKEVKPQAEKDALAKTENQNGELLPQAEKDASKLTTTYDQTKEVKPQAEKDALAKTENQNGELLPQAEKDASKLTTTYDQTKEVKPQAEKDALAKTENQNGELLPQAEKDASKLTTTYDQTKEVKPQAEKDALAKTENQSGELLTQAEKDALAKKESEAPKGSSTSDKNTTENQLNAEAQSEVKPQWQKDYWKSKNESQTETNNTWKKDSWKKKTEEQQNAEAQQEVKSPYEKYSYNKETKPQNDKYTLNKEVKPQNEKYTYNQKVKAENTESEKSLLESSVFN
B2: 60S ribosomal protein L12 (protein, UniProt Q8I3T8 1-165)
chain: MAKKPDPNEIKYVFIRQVGGEVGASSVLSPKLGPLGLSPKKVGDDIAKETQSWKGLKICVKLTIQNRQAKVEVVPTSAALILKELNEAPRDRKKVKNIKHNGNLKLEQVYSIARVMKEKSRAKEFKGTVKEMLGTCNSIGCTVDGKKPTTIQEMIDSGEIDVPLE
B3: Plasmodium exported protein PF3D7_1353100 (protein, UniProt Q8IDG9 1-285)
chain: MKTYNSLNNIMGFQGEHNSTVPSYNKSSMEKSSNIRNNRGRVYSFHFLVKIFACSLFIWTLYVSHNGNVSTNVDVVNTTQGLSKGRILTQGDHHEETEDVNHKAHHTGERTSYTEVKHRRSSSNSHVESNTFQNKEETEVNADSAEQQNYDKEPSQKGKDVKKMLKKADNFIETKLVSALHPKKNHLLKLAILAFPIFMEHVSNIFKRRGFKYIGSAMHLVCLVFYVYIFKVIVNHLLTNKEDRFAHMESHGKHAFDDNKSKKKPKDNKRYGSGSHDHEEEVVEA
B4: Plasmodium exported protein PF3D7_0702500 (protein, UniProt Q8IC42 1-253)
chain: MAYPLLEDDLRSIRVAFGTCPGNSTMQFGERFWQGFFFGVIIFFVLSKYIRSYKKRKGMRILKSSSVTKGRLYRGTVFDEDDNVDGHHKKTKAHGLFEEIEKRNGFDLNDDTTNSNNLGEGTHSAVHNLDGQKESQLYKNNSDGSTENHLSGSNSDGRNSSQHSVGSHSVSSQEHKKEHSTHDLPAGRNYSLGNLSTGTTSQGSTSSRHYSLGGQPSSSGRSFSGSKYNTSNLASSSTTESSVSGLNTNEAHV
B5: Conserved Plasmodium protein PF3D7_0601900 (protein, UniProt C6KSL9 1-128)
chain: MTDHLLDFNMYGSQLHNLLHNAFSTCLEESERTCKRTYVVAILLAFLVLHALLYMKYKKNFKLSGLFKKSKKRTKMSKHYEDDDDDDDYQPPRHSSLPNERKTSSSSRQAARSHSSSSSVYASANAEN
B6: MAHRP2 (protein, UniProt Q8IDG8 1-137)
chain: MQPCPYDVYNQINHVGTHWAQHLGEHLHHLAHMHQHTPHVHHHIPHVHTLAHDRPCMPITAFFCRHHEHCSSHLMLIFLLLAFFLVVVYRLYNEVVNSAKTVRIVNITPVNEEHKAEASKEQSKSTSDSSTSTQQTL

These binders were tested against T1, small exported membrane protein 1 (SEMP1) with a C-terminal 3xHA tag (Plasmodium falciparum) (assay: affinity purification with mass spectrometry; trophozoite stage 3D7 parasites expressing SEMP1-3xHA cross-linked with 1% formaldehyde, saponin released, lysed in 1% SDS and sonicated; α-HA affinity matrix, 4 °C, 16 h; washed with 50 mM Tris-HCl pH 7.4, 150 mM NaCl, 1 mM EDTA, 1% NP40; eluted with HA peptide; LC-MS/MS of TCA precipitated elution or Coomassie-stained gel slices; negative control with excess HA peptide during binding).
B1 was tested, and the binding was “binds”. For B2, the binding was “binds”. For B3, the binding was “binds”. For B4, the binding was “binds”. For B5, the binding was “binds”. In the case of B6, the binding is reported as “binds”.
